# Taken from: PubChem BioAssay AID1224828 (NIAID, 2016)
# Test: 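Knock-downs that increase or decrease LPS-induced p65 nuclear translocation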 (primary screen)
# Cells: mouse RAW264.7 G9 macrophage reporter cells (GFP-p65, Tnf promoter-mCherry)
# Reagent: siRNA pool against mouse genes, 100 nM
# Time to read-out: 2 days siRNA transfection, then 40 min LPS before fixation
# Treatment: LPS (Salmonella minnesota R595) at 10 ng/ml
# Measurement: 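Microscopy ratio of nuclear to perinuclear-ring GFP-p65 signal, scaled to the plate median; gene score is the average of two replicate robust z-scores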
# Direction: p65 translocation robust z-score: higher = more nuclear NF-kappaB p65 after LPS than the plate median; nuclear/cytoplasmic p65 ratio: higher = more nuclear NF-kappaB p65
# Hit rule: 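Called active when z exceeds 3.3 or falls under -1.56 (median of Tlr4 controls), giving activity score of at least 50; no calls for control wells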
# Calls: active = hit (p65 shift raised or lowered); inactive = no clear change
# In all, the deposit lists about 17,000 reagents; shown is a random part of them. Over the whole deposit, 762 (4.5%) were called active. 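Active calls include both raised and lowered p65 entry, mostly lowered; wells with fewer than 50 cells lack a z-score.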 Raw values are not corrected between plates. Entries without a mark were called inactive. A reagent listed more than once was tested more than once; the source does not tell the runs apart.
gene knocked down,PubChem SID,p65 translocation robust z-score,"nuclear/cytoplasmic p65 ratio, rep 1","nuclear/cytoplasmic p65 ratio, rep 2",low cell count flag
Mcf2,SID315476856,0.16,1.5,1.33,enough cells to score
Anxa3,SID315465421,0.98,1.83,1.71,enough cells to score
Lypd8l,SID315475569,,1.5,1.28,fewer than 50 cells per well; well left out of scoring
Ccl12,SID315469132,,2.83,1.5,fewer than 50 cells per well; well left out of scoring
Ccl12,SID315469132,-0.95,1.38,1.45,enough cells to score
Ewsr1,SID315466587,2.19,1.85,1.57,enough cells to score
Impa1,SID315471323,-0.04,1.48,1.37,enough cells to score
Amigo1,SID315478737,0.72,1.79,1.72,enough cells to score
Or4d11,SID315480328,0.28,1.65,1.46,enough cells to score
Tescl,SID315473778,,1.16,1.42,fewer than 50 cells per well; well left out of scoring
Or6p1,SID315480405,0.98,1.75,1.46,enough cells to score
Gabra5,SID315476945,-1.59 (active),1.21,1.18,enough cells to score
Dus3l,SID315478387,0.67,1.55,1.68,enough cells to score
Rnf138,SID315471584,0.52,1.49,1.34,enough cells to score
Tmem19,SID315472912,1.85,1.6,1.19,enough cells to score
Pitx2,SID315468532,-0.44,1.48,1.31,enough cells to score
Aadat,SID315470234,1.52,1.77,1.63,enough cells to score
Scgb1b2,SID315471781,0.3,1.73,1.61,enough cells to score
Or4a70,SID315480584,0.77,1.77,1.49,enough cells to score
Aqp11,SID315472368,,1.35,1.58,fewer than 50 cells per well; well left out of scoring
Raf1,SID315476878,-1.61 (active),1.43,1.24,enough cells to score
Lrrc26,SID315478573,0.47,1.68,1.89,enough cells to score
Psd,SID315474775,-0.1,1.44,1.51,enough cells to score
Tmem88,SID315472782,,1.11,1.51,fewer than 50 cells per well; well left out of scoring
Akr1c21,SID315475460,0.34,1.6,1.8,enough cells to score
Fndc10,SID315478851,0.89,1.72,1.98,enough cells to score
Slc5a4b,SID315472107,1.87,1.65,1.47,enough cells to score
Dolpp1,SID315471719,-1.25,1.35,1.18,enough cells to score
Slc10a2,SID315469270,2,1.67,1.93,enough cells to score

Next part, starting with the last 2 of the part before.
gene knocked down,PubChem SID,p65 translocation robust z-score,"nuclear/cytoplasmic p65 ratio, rep 1","nuclear/cytoplasmic p65 ratio, rep 2",low cell count flag
Dolpp1,SID315471719,-1.25,1.35,1.18,enough cells to score
Slc10a2,SID315469270,2,1.67,1.93,enough cells to score
Phpt1,SID315475126,-0.73,1.37,1.34,enough cells to score
Lrp2bp,SID315473130,,1.08,1.02,fewer than 50 cells per well; well left out of scoring
Zfp292,SID315470734,0.43,1.46,1.31,enough cells to score
Pla2g7,SID315470556,0.35,1.55,1.45,enough cells to score
Grm5,SID315476679,0.77,1.5,1.81,enough cells to score
Aanat,SID315465227,-1.23,1.17,1.41,enough cells to score
Tyrp1,SID315469893,0.25,1.56,1.52,enough cells to score
Or52w1,SID315480040,0.71,1.4,1.35,enough cells to score
Slc39a5,SID315474417,,1.37,1.26,fewer than 50 cells per well; well left out of scoring
Ifi47,SID315467382,-0.56,1.52,1.31,enough cells to score
Slco5a1,SID315479520,,1.71,1.62,fewer than 50 cells per well; well left out of scoring
Plxdc2,SID315473031,0.9,1.32,1.32,enough cells to score
Or4d10c,SID315480450,1.1,1.7,1.63,enough cells to score
Cys1,SID315466094,0.25,1.6,1.84,enough cells to score
Nudt3,SID315471515,1.93,1.99,1.83,enough cells to score
Or13a1,SID315480537,-1.76 (active),1.5,1.2,enough cells to score
Grm8,SID315467040,-0.81,1.38,1.48,enough cells to score
2210408O09Rik (retired record),SID315474531,0.61,1.44,1.34,enough cells to score
Erv3,SID315474413,,1.46,1.67,fewer than 50 cells per well; well left out of scoring
Hsd17b8,SID315467111,,1.69,1.4,fewer than 50 cells per well; well left out of scoring
Socs3,SID315465976,0.15,1.39,1.76,enough cells to score
Mrpl51,SID315472474,1.08,1.97,1.74,enough cells to score
Tacc1,SID315481245,-1.8 (active),1.41,1.29,enough cells to score
Hcls1,SID315467159,1.17,1.76,1.77,enough cells to score
Angel2,SID315470970,-1.72 (active),1.26,1.36,enough cells to score
Zfp462,SID315479615,0.79,1.41,1.34,enough cells to score
Tnfrsf8,SID315469770,-1.26,1.33,1.3,enough cells to score
Ggnbp2,SID315478069,-0.12,1.2,1.23,enough cells to score
Snrpe,SID315469367,,1.28,1.08,fewer than 50 cells per well; well left out of scoring
Scai,SID315481275,1.48,1.48,1.83,enough cells to score
